Assay [1] concerns the target MYOSIN BINDING PROTEIN14 fused with GFP (MYOB14-GFP) (A. thaliana) (UniProt Q9SVR1). Briefly: affinity purification with mass spectrometry; extracts of 3-week-old A. thaliana plants expressing MYOB2-GFP or MYOB14-GFP in lysis buffer (150 mM NaCl, 1% Ecosurf EH-9, 50 mM Tris-HCl pH 8.0); anti-GFP microbeads (uMACS), 4°C 30 min; eluted proteins identified by LC-MS/MS.
The target in assay [2] is T1, MYOSIN BINDING PROTEIN2 fused with GFP (MYOB2-GFP) (A. thaliana) (UniProt Q9CAC4).
T1 sequence: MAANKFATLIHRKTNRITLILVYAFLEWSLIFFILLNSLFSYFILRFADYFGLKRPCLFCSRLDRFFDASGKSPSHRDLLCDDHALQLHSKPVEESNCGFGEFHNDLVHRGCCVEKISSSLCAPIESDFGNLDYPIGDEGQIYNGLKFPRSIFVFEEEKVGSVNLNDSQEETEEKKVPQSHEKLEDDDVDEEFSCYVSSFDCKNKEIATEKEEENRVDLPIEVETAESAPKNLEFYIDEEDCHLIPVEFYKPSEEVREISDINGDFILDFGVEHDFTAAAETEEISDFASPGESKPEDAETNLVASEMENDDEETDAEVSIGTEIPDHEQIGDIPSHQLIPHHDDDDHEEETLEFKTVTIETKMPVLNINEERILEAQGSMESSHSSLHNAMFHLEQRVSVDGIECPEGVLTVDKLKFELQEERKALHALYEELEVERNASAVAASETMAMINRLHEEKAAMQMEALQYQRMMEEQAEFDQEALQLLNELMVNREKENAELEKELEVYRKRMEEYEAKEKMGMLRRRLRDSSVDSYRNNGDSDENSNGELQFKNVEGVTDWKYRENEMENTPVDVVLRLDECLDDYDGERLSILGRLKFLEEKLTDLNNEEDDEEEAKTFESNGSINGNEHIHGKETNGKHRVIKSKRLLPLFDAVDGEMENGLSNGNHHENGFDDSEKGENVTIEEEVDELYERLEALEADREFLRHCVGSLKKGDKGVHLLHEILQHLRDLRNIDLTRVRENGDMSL
The description is as above.

Protein sequences, listed by entry. Tags and fused reporters are not part of them.
UniProt F4K5J1: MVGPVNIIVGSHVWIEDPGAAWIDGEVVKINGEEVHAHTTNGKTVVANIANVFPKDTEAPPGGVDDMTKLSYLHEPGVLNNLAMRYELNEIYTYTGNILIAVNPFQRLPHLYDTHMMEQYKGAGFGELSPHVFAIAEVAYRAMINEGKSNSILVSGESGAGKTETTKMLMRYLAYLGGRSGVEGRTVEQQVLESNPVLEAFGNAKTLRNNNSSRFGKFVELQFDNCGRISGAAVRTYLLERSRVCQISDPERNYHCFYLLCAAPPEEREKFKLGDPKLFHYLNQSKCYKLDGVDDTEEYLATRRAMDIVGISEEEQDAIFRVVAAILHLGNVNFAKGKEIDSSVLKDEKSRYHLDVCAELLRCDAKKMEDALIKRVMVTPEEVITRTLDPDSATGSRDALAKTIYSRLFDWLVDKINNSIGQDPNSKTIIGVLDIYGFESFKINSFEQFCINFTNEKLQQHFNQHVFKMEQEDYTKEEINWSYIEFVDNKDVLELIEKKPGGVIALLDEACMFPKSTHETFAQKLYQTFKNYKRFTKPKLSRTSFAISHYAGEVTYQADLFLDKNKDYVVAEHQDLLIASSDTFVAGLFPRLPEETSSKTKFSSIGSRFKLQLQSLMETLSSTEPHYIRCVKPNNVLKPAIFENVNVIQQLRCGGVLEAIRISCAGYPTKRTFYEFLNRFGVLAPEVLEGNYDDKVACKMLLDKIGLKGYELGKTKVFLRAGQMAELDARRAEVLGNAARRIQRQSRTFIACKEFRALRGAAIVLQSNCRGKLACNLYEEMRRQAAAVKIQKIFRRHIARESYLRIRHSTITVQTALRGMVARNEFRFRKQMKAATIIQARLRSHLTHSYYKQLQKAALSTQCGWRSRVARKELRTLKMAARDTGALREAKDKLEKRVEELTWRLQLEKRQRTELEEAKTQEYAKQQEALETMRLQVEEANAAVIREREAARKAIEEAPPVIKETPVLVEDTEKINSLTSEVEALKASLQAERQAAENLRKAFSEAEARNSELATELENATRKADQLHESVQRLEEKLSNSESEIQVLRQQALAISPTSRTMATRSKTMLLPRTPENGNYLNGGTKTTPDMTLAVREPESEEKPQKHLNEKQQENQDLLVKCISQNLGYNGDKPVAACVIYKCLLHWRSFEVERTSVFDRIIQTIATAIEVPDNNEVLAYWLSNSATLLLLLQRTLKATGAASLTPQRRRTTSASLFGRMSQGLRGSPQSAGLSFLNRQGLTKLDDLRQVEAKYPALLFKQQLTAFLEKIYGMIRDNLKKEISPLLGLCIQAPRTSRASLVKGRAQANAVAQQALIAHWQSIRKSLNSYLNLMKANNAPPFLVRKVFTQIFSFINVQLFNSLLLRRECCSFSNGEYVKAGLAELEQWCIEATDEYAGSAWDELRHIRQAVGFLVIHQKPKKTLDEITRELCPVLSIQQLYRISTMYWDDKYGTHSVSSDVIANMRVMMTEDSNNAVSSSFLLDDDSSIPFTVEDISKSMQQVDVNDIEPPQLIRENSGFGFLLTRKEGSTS

No constants are given. Whether binding was seen depends on the method and setting. In cells and extracts the contact can be indirect. A yes stands for co-enrichment or nearness to the bait. Other partners may have been found. For some assays here: Tags and fused reporters may be left off the sequences shown.

Consider myosin XIK (from UniProt F4K5J1 1-1531), for which the binding result in assay [1] and in assay [2] was “binds” each time.

The values above are taken from PMC10940516.
